Results: paper PMC11236538
No constants are given. Whether binding was seen depends on the method and setting. For some of these results: In cells and extracts the contact can be indirect. Some results given as binding are weak or reduced against the parent protein; the word gives no strength.

Chains of the proteins cited; added tags and fusions are not shown. Lines headed by an entry give the natural chain unless they say otherwise; changes in a name come on top. Residues count along the entry.
UniProt P20333: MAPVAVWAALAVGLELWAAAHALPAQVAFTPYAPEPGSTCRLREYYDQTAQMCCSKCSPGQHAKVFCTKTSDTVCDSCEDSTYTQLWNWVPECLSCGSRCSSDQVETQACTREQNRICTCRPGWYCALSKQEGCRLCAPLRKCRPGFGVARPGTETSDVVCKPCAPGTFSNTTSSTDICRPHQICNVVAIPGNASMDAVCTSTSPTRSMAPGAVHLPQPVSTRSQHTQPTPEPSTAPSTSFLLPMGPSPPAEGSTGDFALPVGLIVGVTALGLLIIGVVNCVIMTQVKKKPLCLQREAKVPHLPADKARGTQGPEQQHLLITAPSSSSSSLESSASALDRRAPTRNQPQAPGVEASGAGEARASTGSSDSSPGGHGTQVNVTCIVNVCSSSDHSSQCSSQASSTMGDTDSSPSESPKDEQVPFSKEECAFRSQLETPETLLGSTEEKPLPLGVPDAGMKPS
TNFR2, endogenous in HUVECs (human (endogenous in HUVEC)): residues 23-461 of P20333
TNFR2-Fc: residues 23-257 of P20333
UniProt P19438, residues 30-211: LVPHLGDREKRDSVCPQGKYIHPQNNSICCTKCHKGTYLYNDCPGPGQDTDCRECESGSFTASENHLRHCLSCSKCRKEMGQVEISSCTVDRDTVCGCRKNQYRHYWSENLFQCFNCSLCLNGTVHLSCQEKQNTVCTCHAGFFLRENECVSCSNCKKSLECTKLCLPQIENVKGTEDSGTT
UniProt O14786: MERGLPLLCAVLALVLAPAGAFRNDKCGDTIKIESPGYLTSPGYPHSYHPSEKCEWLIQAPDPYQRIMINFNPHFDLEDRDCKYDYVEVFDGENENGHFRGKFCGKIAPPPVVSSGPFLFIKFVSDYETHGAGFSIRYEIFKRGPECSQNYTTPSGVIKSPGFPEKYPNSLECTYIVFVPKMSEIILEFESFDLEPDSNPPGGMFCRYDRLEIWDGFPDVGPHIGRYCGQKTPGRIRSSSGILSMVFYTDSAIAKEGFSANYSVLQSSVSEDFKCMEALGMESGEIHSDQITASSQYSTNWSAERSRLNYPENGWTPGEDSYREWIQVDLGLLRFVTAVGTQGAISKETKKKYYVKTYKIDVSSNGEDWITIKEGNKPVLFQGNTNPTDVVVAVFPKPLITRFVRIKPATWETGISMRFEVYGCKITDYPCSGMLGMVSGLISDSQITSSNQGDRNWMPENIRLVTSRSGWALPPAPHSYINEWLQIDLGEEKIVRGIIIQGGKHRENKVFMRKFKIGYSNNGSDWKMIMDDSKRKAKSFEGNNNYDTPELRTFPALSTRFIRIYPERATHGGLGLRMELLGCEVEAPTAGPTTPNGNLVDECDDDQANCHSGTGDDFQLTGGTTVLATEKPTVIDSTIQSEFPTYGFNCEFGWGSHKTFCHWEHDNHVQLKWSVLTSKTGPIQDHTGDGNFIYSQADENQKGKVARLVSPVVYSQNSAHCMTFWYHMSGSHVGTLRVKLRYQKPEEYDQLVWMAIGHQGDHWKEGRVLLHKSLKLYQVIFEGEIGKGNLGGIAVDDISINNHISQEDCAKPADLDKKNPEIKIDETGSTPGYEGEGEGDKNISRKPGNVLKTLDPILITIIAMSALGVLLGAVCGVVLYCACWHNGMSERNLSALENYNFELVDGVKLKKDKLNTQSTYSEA

Experiments:
[1] = target: TNFR2, endogenous in HUVECs (human (endogenous in HUVEC)) (UniProt P20333); experiment: co-IP; HUVEC lysates (HEPES 50 mM, NaCl 125 mM, CHAPS 0.5%, EDTA 1 mM, DTT, PMSF) incubated overnight with anti-TNFR1 or anti-TNFR2 antibodies on Protein G Dynabeads; blot for NRP1; cells with or without TNFα (5 ng/mL, 15 min)
[2] = target: GPI-anchored ectodomain of TNFR1 on HEK293 cells (UniProt P19438); experiment: binding of a Gaussia luciferase (GpL) fusion protein to cells; HEK293 cells with TNFR1-GPI or TNFR2-GPI; 100 ng/mL GpL fusion protein in the absence and presence of 200 ng/mL TNF; total binding, 2 h at 37°C
[3] = target: GPI-anchored ectodomain of TNFR2 on HEK293 cells (UniProt P20333); experiment: as above
[4] = target: GPI-anchored ectodomain of TNFR1 on HEK293 cells (UniProt P19438); experiment: binding of a Gaussia luciferase (GpL) fusion protein to cells; HEK293 cells transiently expressing GPI-anchored TNFR1 or TNFR2 ectodomain; empty-vector cells for unspecific binding; GpL fusion proteins 2 h at 37°C in RPMI, 10% FCS
[5] = target: GPI-anchored ectodomain of TNFR2 on HEK293 cells (UniProt P20333); experiment: as above
[6] = target: TNFR2-Fc (UniProt P20333); experiment: binding of a Gaussia luciferase (GpL) fusion protein to coated plates; TNFR2-Fc (2 μg/mL) immobilised on black 96-well plastic plates; TRAILR1-Fc wells for unspecific binding; GpL fusion proteins 2 h at 37°C; 10 washes with ice-cold PBS

Substance	binding [1]	binding [2]	binding [3]	binding [4]	binding [5]	binding [6]
NRP1 expressed from a retrovirus in HUVECs (from UniProt O14786 22-923)	binds	–	–	–	–	–
NRP1-Fc-GpL fusion protein (from UniProt O14786 22-856) (Fc fusion)	–	no binding (tested: 100 ng/mL)	no binding (tested: 100 ng/mL)	no binding	no binding	no binding
neuropilin-1 (NRP1), endogenous in HUVECs (from UniProt O14786 22-923)	binds	–	–	–	–	–
